Test results from publication PMC4466651.
No constants are given. Whether binding was seen depends on the method and setting. Binding seen in cells or lysates may run through a third protein. Some entries that bind do so weakly or less than the wild type. Where a sequence is shown, tags or fusion partners need not be part of it.

Chains of the proteins cited; added tags and fusions are not shown.
UniProt P16615: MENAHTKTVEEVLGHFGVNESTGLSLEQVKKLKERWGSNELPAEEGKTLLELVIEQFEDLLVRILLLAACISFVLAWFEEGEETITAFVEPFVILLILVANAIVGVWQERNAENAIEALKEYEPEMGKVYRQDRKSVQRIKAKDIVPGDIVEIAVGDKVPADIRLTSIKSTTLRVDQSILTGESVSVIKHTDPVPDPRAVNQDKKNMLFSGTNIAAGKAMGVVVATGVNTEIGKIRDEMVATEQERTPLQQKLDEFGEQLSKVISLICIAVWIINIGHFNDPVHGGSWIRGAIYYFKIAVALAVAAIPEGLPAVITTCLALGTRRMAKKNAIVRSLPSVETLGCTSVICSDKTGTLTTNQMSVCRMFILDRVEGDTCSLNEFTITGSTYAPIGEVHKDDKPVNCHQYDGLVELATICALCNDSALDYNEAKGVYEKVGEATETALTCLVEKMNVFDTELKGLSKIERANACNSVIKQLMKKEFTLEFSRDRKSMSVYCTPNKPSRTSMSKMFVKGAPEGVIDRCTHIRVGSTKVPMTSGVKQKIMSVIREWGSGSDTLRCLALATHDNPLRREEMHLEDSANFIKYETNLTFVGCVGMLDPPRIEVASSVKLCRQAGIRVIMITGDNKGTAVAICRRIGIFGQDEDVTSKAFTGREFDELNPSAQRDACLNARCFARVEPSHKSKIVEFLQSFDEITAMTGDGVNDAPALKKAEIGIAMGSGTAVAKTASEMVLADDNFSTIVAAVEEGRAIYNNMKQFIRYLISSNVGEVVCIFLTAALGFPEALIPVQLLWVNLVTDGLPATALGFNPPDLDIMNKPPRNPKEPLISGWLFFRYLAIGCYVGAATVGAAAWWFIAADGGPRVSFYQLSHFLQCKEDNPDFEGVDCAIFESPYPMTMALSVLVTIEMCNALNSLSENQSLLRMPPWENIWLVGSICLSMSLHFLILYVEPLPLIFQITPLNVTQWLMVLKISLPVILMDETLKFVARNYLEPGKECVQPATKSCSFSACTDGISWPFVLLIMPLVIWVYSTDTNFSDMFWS

How the values were obtained:
[1] = biological target: SERCA2, HA-tagged (UniProt P16615); test: co-IP; SMMC-7721 cells co-transfected with Flag-HRC and HA-SERCA2, lysed after 48 h in 1% NP40 NET buffer; supernatants incubated overnight at 4°C with protein G-Sepharose beads conjugated with rabbit anti-Flag or anti-HA antibody; western blot
[2] = biological target: SERCA2, HA-tagged (UniProt P16615); test: co-IP; HEK 293T cells co-transfected with Flag-HRC and HA-SERCA2, lysed after 48 h in 1% NP40 NET buffer; supernatants incubated overnight at 4°C with protein G-Sepharose beads conjugated with rabbit anti-Flag or anti-HA antibody; western blot; done in both directions

B1: histidine-rich calcium binding protein (HRC), FLAG-tagged (protein, UniProt P23327 29-699)
chain: QLRGDGLGFRNRNNSTGVAGLSEEASAELRHHLHSPRDHPDENKDVSTENGHHFWSHPDREKEDEDVSKEYGHLLPGHRSQDHKVGDEGVSGEEVFAEHGGQARGHRGHGSEDTEDSAEHRHHLPSHRSHSHQDEDEDEVVSSEHHHHILRHGHRGHDGEDDEGEEEEEEEEEEEEASTEYGHQAHRHRGHGSEEDEDVSDGHHHHGPSHRHQGHEEDDDDDDDDDDDDDDDDVSIEYRHQAHRHQGHGIEEDEDVSDGHHHRDPSHRHRSHEEDDNDDDDVSTEYGHQAHRHQDHRKEEVEAVSGEHHHHVPDHRHQGHRDEEEDEDVSTERWHQGPQHVHHGLVDEEEEEEEITVQFGHYVASHQPRGHKSDEEDFQDEYKTEVPHHHHHRVPREEDEEVSAELGHQAPSHRQSHQDEETGHGQRGSIKEMSHHPPGHTVVKDRSHLRKDDSEEEKEKEEDPGSHEEDDESSEQGEKGTHHGSRDQEDEEDEEEGHGLSLNQEEEEEEDKEEEEEEEDEERREERAEVGAPLSPDHSEEEEEEEEGLEEDEPRFTIIPNPLDRREEAGGASSEEESGEDTGPQDAQEYGNYQPGSLCGYCSFCNRCTECESCHCDEENMGEHCDQCQHCQFCYLCPLVCETVCAPGSYVDYFSSSLYQALADMLETPEP
In the case of B1, the binding [1] is reported as “binds” and the binding [2] is reported as “binds”.
